From patent publication US20140120091A1 (University of Washington, published 2014)
No constants are given. Whether binding was seen depends on the method and setting. Some entries that bind do so weakly or less than the wild type.

Amino acid sequences for entries named in this document (tags omitted). A change or cut given only in a name is not applied to a line headed by its entry. Residues count along the entry.
UniProt Q80W65, residues 35-694: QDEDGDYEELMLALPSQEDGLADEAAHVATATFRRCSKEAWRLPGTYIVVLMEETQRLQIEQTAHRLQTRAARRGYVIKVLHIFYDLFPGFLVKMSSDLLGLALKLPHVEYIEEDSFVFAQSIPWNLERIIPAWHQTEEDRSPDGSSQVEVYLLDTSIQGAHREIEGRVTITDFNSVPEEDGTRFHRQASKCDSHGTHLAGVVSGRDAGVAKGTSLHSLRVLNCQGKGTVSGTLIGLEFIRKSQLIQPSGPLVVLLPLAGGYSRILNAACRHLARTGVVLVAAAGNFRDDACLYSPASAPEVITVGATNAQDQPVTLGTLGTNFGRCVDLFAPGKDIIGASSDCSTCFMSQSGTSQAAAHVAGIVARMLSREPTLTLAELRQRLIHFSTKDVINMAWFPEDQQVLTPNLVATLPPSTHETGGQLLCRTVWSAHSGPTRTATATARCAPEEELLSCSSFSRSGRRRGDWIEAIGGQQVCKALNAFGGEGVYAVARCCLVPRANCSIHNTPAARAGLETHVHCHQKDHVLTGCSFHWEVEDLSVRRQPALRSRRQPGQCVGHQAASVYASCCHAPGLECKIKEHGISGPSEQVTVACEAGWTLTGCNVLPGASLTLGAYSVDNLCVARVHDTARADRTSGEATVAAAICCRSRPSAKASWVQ

How the values were obtained:
[1] = molecular target: mouse PCSK9-his6 (Sino Biologicals, Cat# 50251-M08H) (mouse) (UniProt Q80W65); test: ELISA, fusion protein immobilized at 2.0, 1.0 and 0.5 ug/ml, mouse PCSK9-his6 10 ug/ml to 10 ng/ml, HRP anti-his6 detection
[2] = molecular target: mouse PCSK9-his6 (Sino Biologicals, Cat# 50251-M08H) (mouse) (UniProt Q80W65); test: ELISA, fusion protein immobilized, mouse PCSK9-his6 in solution, HRP anti-his6 detection

hLDLR EGF-AB WT-SSSH-mthIgG1 (from UniProt P01130 314-397) (Fc fusion)
binding [1]: binds
binding [2]: binds
